Source: publication PMC2726434
Results are given in words; binding and its absence hold for the method and conditions named. Binding seen in cells or lysates may run through a third protein. Some entries that bind do so weakly or less than the wild type. Sequences can lack the tags named with a protein. Blank lines part the entries; values can stand above or below the binder they belong to.

What was measured:
Assay in all cases: co-IP; anti-HA, anti-Cdc10p or anti-myc immunoprecipitates from S. pombe cell extracts, TAP purification buffers; 10% SDS-PAGE and Western blot with anti-HA, anti-myc and anti-Cdc10p antibodies
[1] = target: T1, Cdc10p (S. pombe (endogenous in S. pombe cells)) (UniProt P01129)
T1 sequence: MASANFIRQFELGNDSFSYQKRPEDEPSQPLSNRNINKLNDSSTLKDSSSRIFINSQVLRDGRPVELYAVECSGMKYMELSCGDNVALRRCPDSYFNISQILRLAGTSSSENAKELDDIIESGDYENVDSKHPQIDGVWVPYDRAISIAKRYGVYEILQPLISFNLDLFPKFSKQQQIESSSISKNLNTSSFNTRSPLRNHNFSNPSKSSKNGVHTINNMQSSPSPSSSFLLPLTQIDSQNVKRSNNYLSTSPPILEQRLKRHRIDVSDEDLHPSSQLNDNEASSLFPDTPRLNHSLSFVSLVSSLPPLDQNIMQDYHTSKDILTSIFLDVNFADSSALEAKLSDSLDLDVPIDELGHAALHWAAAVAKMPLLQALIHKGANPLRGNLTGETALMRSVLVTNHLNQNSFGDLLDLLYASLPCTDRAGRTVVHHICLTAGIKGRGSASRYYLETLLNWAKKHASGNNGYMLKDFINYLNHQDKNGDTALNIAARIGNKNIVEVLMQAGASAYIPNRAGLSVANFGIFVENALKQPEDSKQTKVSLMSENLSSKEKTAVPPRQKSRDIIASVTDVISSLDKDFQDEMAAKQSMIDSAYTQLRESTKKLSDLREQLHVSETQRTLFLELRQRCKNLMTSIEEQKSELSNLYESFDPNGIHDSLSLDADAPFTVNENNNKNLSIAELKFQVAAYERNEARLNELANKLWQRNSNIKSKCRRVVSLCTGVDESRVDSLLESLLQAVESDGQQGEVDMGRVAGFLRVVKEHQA

[2] = target: T2, Res2p-myc (myc tagged Res2p) (S. pombe) (UniProt P41412)
T2 sequence: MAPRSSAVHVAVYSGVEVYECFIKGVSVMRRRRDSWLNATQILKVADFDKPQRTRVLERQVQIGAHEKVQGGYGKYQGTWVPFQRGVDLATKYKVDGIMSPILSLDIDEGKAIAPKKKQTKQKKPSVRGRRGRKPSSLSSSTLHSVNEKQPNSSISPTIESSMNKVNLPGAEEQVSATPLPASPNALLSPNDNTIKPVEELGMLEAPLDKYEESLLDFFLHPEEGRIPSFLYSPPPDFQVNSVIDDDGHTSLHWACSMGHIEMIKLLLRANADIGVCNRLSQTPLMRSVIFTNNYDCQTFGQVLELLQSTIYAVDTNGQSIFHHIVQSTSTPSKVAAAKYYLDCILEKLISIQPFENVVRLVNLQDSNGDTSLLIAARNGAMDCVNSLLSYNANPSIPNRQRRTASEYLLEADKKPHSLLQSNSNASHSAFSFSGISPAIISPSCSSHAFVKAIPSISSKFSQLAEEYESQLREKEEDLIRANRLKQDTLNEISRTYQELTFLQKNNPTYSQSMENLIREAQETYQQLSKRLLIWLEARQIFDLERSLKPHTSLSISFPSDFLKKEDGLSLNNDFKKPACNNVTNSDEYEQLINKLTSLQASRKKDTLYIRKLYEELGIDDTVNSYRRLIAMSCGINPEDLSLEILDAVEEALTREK

[3] = target: T3, Yox1p-HA (Yox1p C-terminally tagged with a 3HA epitope) (S. pombe) (UniProt P40923)
T3 sequence: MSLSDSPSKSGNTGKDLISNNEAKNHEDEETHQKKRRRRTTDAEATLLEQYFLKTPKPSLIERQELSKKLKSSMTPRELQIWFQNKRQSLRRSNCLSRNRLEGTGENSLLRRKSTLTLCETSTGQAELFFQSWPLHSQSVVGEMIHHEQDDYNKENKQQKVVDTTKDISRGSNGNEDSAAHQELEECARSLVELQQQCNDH

binding [1]: binds
binding [2]: binds
B1: Yox1p-HA (Yox1p C-terminally tagged with a 3HA epitope) (protein, UniProt P40923 1-201)
chain: T3 sequence

binding [3]: binds
B2: Cdc10p (protein, UniProt P01129 1-767)
chain: T1 sequence
